Reference: publication PMC4160248
No constants are given. Whether binding was seen depends on the method and setting. In cells and extracts the contact can be indirect. Sequences can lack the tags named with a protein.

T1: GFP-Tbx1 (UniProt O43435)
T1 sequence: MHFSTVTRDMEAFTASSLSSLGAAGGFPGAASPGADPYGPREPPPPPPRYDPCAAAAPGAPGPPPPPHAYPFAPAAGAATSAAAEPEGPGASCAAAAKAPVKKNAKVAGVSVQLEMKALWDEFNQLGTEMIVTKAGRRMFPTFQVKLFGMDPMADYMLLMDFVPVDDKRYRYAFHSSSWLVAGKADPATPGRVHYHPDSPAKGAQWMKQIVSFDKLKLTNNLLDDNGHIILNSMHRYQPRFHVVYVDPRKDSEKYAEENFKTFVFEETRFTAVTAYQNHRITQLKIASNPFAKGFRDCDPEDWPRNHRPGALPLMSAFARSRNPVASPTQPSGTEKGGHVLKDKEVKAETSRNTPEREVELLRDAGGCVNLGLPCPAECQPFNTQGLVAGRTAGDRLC

B1: Myc-Dazap1 (protein, UniProt Q96EP5 1-407)
chain: MNNSGADEIGKLFVGGLDWSTTQETLRSYFSQYGEVVDCVIMKDKTTNQSRGFGFVKFKDPNCVGTVLASRPHTLDGRNIDPKPCTPRGMQPERTRPKEGWQKGPRSDNSKSNKIFVGGIPHNCGETELREYFKKFGVVTEVVMIYDAEKQRPRGFGFITFEDEQSVDQAVNMHFHDIMGKKVEVKRAEPRDSKSQAPGQPGASQWGSRVVPNAANGWAGQPPPTWQQGYGPQGMWVPAGQAIGGYGPPPAGRGAPPPPPPFTSYIVSTPPGGFPPPQGFPQGYGAPPQFSFGYGPPPPPPDQFAPPGVPPPPATPGAAPLAFPPPPSQAAPDMSKPPTAQPDFPYGQYAGYGQDLSGFGQGFSDPSQQPPSYGGPSVPGSGGPPAGGSGFGRGQNHNVQGFHPYRR

Columns and labels:
Assay in all cases: co-IP; HEK293 cells cotransfected with GFP- and Myc-tagged constructs; lysis in Buffer A (20 mM Tris, 100 mM NaCl, 1% Nonidet-P 40, 1 mM EDTA, 1 mM EGTA); immunoprecipitation with mouse anti-GFP and Protein G beads at 4°C; blot for the tags
[1] = molecular target: T1, GFP-Tbx1
[2] = molecular target: GFP tagged Cmb-PA (Combover/CG10732 isoform PA) (Drosophila melanogaster)
[3] = molecular target: GFP tagged Cmb-PB (Combover/CG10732 isoform PB) (Drosophila melanogaster)

Molecule | binding [1] | binding [2] | binding [3]
Myc-tagged Mwh (Multiple wing hairs) (Drosophila melanogaster) | no binding |  | 
B1 |  | no binding | no binding
